Experimental data taken from the supplement of paper PMC8728848.
This is one part of the list.

How the values were obtained:
Assay in all cases: glycan array binding signal (z-score within array); higher = stronger binding
Settings in all cases: glycan notation: IUPAC condensed, linker removed
[1] = molecular target: Gal(a1-3)Gal(b1-4)GlcNAc
Method in brief: (§1)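 The Consortium for Functional Glycomics database supplied 3228 glycan arrays, of which those lacking an available protein sequence were dropped. The binding signal, a within-array Z-score, was averaged across arrays of the same protein sequence and across linkers. Negative scores can be read as non-binding.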

[2] = molecular target: Gal(a1-3)Gal(b1-4)GlcNAc(b1-2)Man
Method in brief: as §1

[3] = molecular target: Gal(a1-3)Gal(b1-4)GlcNAc(b1-2)Man(a1-3)[Gal(a1-3)Gal(b1-4)GlcNAc(b1-2)Man(a1-6)]Man(b1-4)GlcNAc(b1-4)GlcNAc
Method in brief: as §1

[4] = molecular target: Gal(a1-3)Gal(b1-4)GlcNAc(b1-3)GalNAc
Method in brief: as §1

[5] = molecular target: Gal(a1-3)Gal(b1-4)GlcNAc(b1-6)GalNAc
Method in brief: as §1

[6] = molecular target: Gal(a1-3)Gal(b1-4)[Fuc(a1-3)]GlcNAc
Method in brief: as §1

[7] = molecular target: Gal(a1-3)Gal(b1-4)[Fuc(a1-3)]GlcNAc(b1-2)Man(a1-3)[Gal(a1-3)Gal(b1-4)[Fuc(a1-3)]GlcNAc(b1-2)Man(a1-6)]Man(b1-4)GlcNAc(b1-4)GlcNAc
Method in brief: as §1

[8] = molecular target: Gal(a1-3)GalNAc
Method in brief: as §1

[9] = molecular target: Gal(a1-3)[Gal(a1-4)]Gal(b1-4)GlcNAc
Method in brief: as §1

[10] = molecular target: Gal(a1-4)Gal(b1-3)GlcNAc(b1-2)Man(a1-3)[Gal(a1-4)Gal(b1-3)GlcNAc(b1-2)Man(a1-6)]Man(b1-4)GlcNAc(b1-4)GlcNAc
Method in brief: as §1

[11] = molecular target: Gal(a1-4)Gal(b1-4)Glc
Method in brief: as §1

[12] = molecular target: Gal(a1-4)Gal(b1-4)GlcNAc
Method in brief: as §1

[13] = molecular target: Gal(a1-4)Gal(b1-4)GlcNAc(b1-2)Man(a1-3)[Gal(a1-4)Gal(b1-4)GlcNAc(b1-2)Man(a1-6)]Man(b1-4)GlcNAc(b1-4)GlcNAc
Method in brief: as §1

[14] = molecular target: Gal(a1-4)Gal(b1-4)GlcNAc(b1-3)Gal(b1-4)Glc
Method in brief: as §1

[15] = molecular target: Gal(a1-4)GlcNAc
Method in brief: as §1

[16] = molecular target: Gal(a1-6)Glc
Method in brief: as §1

[17] = molecular target: Gal(b1-2)Gal
Method in brief: as §1

[18] = molecular target: Gal(b1-3)Gal
Method in brief: as §1

[19] = molecular target: Gal(b1-3)Gal(b1-4)GlcNAc
Method in brief: as §1

[20] = molecular target: Gal(b1-3)GalNAc
Method in brief: as §1

[21] = molecular target: Gal(b1-3)GalNAc(a1-3)[Fuc(a1-2)]Gal(b1-4)Glc
Method in brief: as §1

[22] = molecular target: Gal(b1-3)GalNAc(a1-3)[Fuc(a1-2)]Gal(b1-4)GlcNAc
Method in brief: as §1

[23] = molecular target: Gal(b1-3)GalNAc(b1-3)Gal
Method in brief: as §1

[24] = molecular target: Gal(b1-3)GalNAc(b1-3)Gal(a1-4)Gal(b1-4)Glc
Method in brief: as §1

[25] = molecular target: Gal(b1-3)GalNAc(b1-4)Gal(b1-4)Glc
Method in brief: as §1

[26] = molecular target: Gal(b1-3)GalNAc(b1-4)[Neu5Ac(a2-3)]Gal(b1-4)Glc
Method in brief: as §1

[27] = molecular target: Gal(b1-3)GlcNAc
Method in brief: as §1

[28] = molecular target: Gal(b1-3)GlcNAc(a1-3)Gal(b1-4)GlcNAc
Method in brief: as §1

[29] = molecular target: Gal(b1-3)GlcNAc(a1-6)Gal(b1-4)GlcNAc
Method in brief: as §1

[30] = molecular target: Gal(b1-3)GlcNAc(b1-2)Man
Method in brief: as §1

[31] = molecular target: Gal(b1-3)GlcNAc(b1-2)Man(a1-3)[Gal(b1-3)GlcNAc(b1-2)Man(a1-6)]Man(b1-4)GlcNAc(b1-4)GlcNAc
Method in brief: as §1

[32] = molecular target: Gal(b1-3)GlcNAc(b1-2)Man(a1-3)[Gal(b1-3)GlcNAc(b1-2)Man(a1-6)]Man(b1-4)GlcNAc(b1-4)[Fuc(a1-6)]GlcNAc
Method in brief: as §1

[33] = molecular target: Gal(b1-3)GlcNAc(b1-2)Man(a1-3)[GlcNAc(b1-4)][Gal(b1-3)GlcNAc(b1-2)Man(a1-6)]Man(b1-4)GlcNAc(b1-4)GlcNAc
Method in brief: as §1

[34] = molecular target: Gal(b1-3)GlcNAc(b1-2)[Gal(b1-3)GlcNAc(b1-6)]Man(a1-6)[Gal(b1-3)GlcNAc(b1-2)Man(a1-3)]Man(b1-4)GlcNAc(b1-4)GlcNAc
Method in brief: as §1

[35] = molecular target: Gal(b1-3)GlcNAc(b1-3)Gal(b1-3)GlcNAc
Method in brief: as §1

[36] = molecular target: Gal(b1-3)GlcNAc(b1-3)Gal(b1-4)Glc
Method in brief: as §1

[37] = molecular target: Gal(b1-3)GlcNAc(b1-3)Gal(b1-4)GlcNAc
Method in brief: as §1

[38] = molecular target: Gal(b1-3)GlcNAc(b1-3)Gal(b1-4)GlcNAc(b1-2)Man(a1-3)[Gal(b1-3)GlcNAc(b1-3)Gal(b1-4)GlcNAc(b1-2)Man(a1-6)]Man(b1-4)GlcNAc(b1-4)GlcNAc
Method in brief: as §1

[39] = molecular target: Gal(b1-3)GlcNAc(b1-3)Gal(b1-4)GlcNAc(b1-2)[Gal(b1-3)GlcNAc(b1-3)Gal(b1-4)GlcNAc(b1-6)]Man(a1-6)[Gal(b1-3)GlcNAc(b1-3)Gal(b1-4)GlcNAc(b1-2)Man(a1-3)]Man(b1-4)GlcNAc(b1-4)[Fuc(a1-6)]GlcNAc
Method in brief: as §1

[40] = molecular target: Gal(b1-3)GlcNAc(b1-3)Gal(b1-4)GlcNAc(b1-3)Gal(b1-4)GlcNAc(b1-2)[Gal(b1-3)GlcNAc(b1-3)Gal(b1-4)GlcNAc(b1-3)Gal(b1-4)GlcNAc(b1-6)]Man(a1-6)[Gal(b1-3)GlcNAc(b1-3)Gal(b1-4)GlcNAc(b1-3)Gal(b1-4)GlcNAc(b1-2)Man(a1-3)]Man(b1-4)GlcNAc(b1-4)[Fuc(a1-6)]GlcNAc
Method in brief: as §1

[41] = molecular target: Gal(b1-3)GlcNAc(b1-3)Gal(b1-4)GlcNAc(b1-6)[Gal(b1-3)GlcNAc(b1-3)]Gal(b1-4)Glc
Method in brief: as §1

[42] = molecular target: Gal(b1-3)GlcNAc(b1-3)Gal(b1-4)[Fuc(a1-3)]GlcNAc
Method in brief: as §1

[43] = molecular target: Gal(b1-3)GlcNAc(b1-3)Gal(b1-4)[Fuc(a1-3)]GlcNAc(b1-6)[Gal(b1-3)GlcNAc(b1-3)]Gal(b1-4)Glc
Method in brief: as §1

[44] = molecular target: Gal(b1-3)GlcNAc(b1-3)GalNAc
Method in brief: as §1

[45] = molecular target: Gal(b1-3)GlcNAc(b1-6)Gal(b1-4)GlcNAc
Method in brief: as §1

[46] = molecular target: Gal(b1-3)GlcNAc(b1-6)GalNAc
Method in brief: as §1

[47] = molecular target: Gal(b1-3)GlcNAc(b1-6)[Gal(b1-3)]GalNAc
Method in brief: as §1

[48] = molecular target: Gal(b1-3)GlcNAc6S
Method in brief: as §1

[49] = molecular target: Gal(b1-3)[Fuc(a1-4)]GlcNAc
Method in brief: as §1

[50] = molecular target: Gal(b1-3)[Fuc(a1-4)]GlcNAc(b1-2)Man
Method in brief: as §1

[51] = molecular target: Gal(b1-3)[Fuc(a1-4)]GlcNAc(b1-2)Man(a1-3)[Gal(b1-3)[Fuc(a1-4)]GlcNAc(b1-2)Man(a1-6)]Man(b1-4)GlcNAc(b1-4)[Fuc(a1-6)]GlcNAc
Method in brief: as §1

[52] = molecular target: Gal(b1-3)[Fuc(a1-4)]GlcNAc(b1-3)Gal(b1-3)[Fuc(a1-4)]GlcNAc
Method in brief: as §1

[53] = molecular target: Gal(b1-3)[Fuc(a1-4)]GlcNAc(b1-3)Gal(b1-4)[Fuc(a1-3)]GlcNAc
Method in brief: as §1

[54] = molecular target: Gal(b1-3)[Fuc(a1-4)]GlcNAc(b1-6)GalNAc
Method in brief: as §1

[55] = molecular target: Gal(b1-3)[GlcNAc(b1-6)]GalNAc
Method in brief: as §1

[56] = molecular target: Gal(b1-3)[Neu5Ac(a2-6)]GalNAc
Method in brief: as §1

[57] = molecular target: Gal(b1-3)[Neu5Ac(a2-6)]GlcNAc(b1-4)Gal(b1-4)Glc
Method in brief: as §1

[58] = molecular target: Gal(b1-3)[Neu5Ac(b2-6)]GalNAc
Method in brief: as §1

[59] = molecular target: Gal(b1-4)Gal
Method in brief: as §1

[60] = molecular target: Gal(b1-4)GalNAc(a1-3)[Fuc(a1-2)]Gal(b1-4)GlcNAc
Method in brief: as §1

B1: BT4246 (Bacteroides thetaiotaomicron), Q89ZX5 (protein)
chain: MGSSHHHHHHENLYFQGHMASDYLDVVPPEQPNIDDAMSSPTRALGFLYSCYGGVSTDLPSAYLGEINSTTDEYVLPYSWNTDGYWGAYAFNTASSTNQDWLWGTTYQYIGQCYLFLQKLENAGSDIASDAEKEQWRAECQFLVAYYHFATLRRYGPIPITDSYIPMDTPTSEYNGRFHFDYCVDWIANQLDEAAKVLPANRTVTNEWGRATSTIAKAVKARLLLYAASPLWNGSFPYPNWQNENFETPGYGKALVSNTYDKSKWERALAACQEALTLATTSGDRELYDDDEYYSRQSLNLPFVPGVADVEDNKEFLKNVMKMRYAVSTRESEGNKEIIWGLSNQFDFYSRYPLRILKKSDGTWHAGYSGVSPTLYTFEHFYTANGKLPEKDLDFTPSSEWFESAGISSREDIIKLNVGREPRFYAWMAFDGGDYGTKFAAGSPLKLEMRNSEMHGYNPSLFNRDHSVTGFLTQKFVDPVTEFYTAGGSTSGTSAPTILFRLAELYLNVAECHAALGNTQEAIDALNPVRERAGIPKLTLADITNNMTIKDWVHNERFVELWNEGHRFFDVRRWAEGAKYFGANKREGLNAEVQSPTFEEFNKRTTVDAPYVWENRMYLNPVFYNEVYKNPQMVQAPGY
glycan array binding signal (z-score) [1]: -0.182
glycan array binding signal (z-score) [2]: -0.337
glycan array binding signal (z-score) [3]: -0.729
glycan array binding signal (z-score) [4]: -0.92
glycan array binding signal (z-score) [5]: 0.354
glycan array binding signal (z-score) [6]: -0.933
glycan array binding signal (z-score) [7]: -1.29
glycan array binding signal (z-score) [8]: 0.367
glycan array binding signal (z-score) [9]: 0.656
glycan array binding signal (z-score) [10]: 1.64
glycan array binding signal (z-score) [11]: 0.019
glycan array binding signal (z-score) [12]: -0.155
glycan array binding signal (z-score) [13]: -0.235
glycan array binding signal (z-score) [14]: -0.795
glycan array binding signal (z-score) [15]: 0.366
glycan array binding signal (z-score) [16]: 0.294
glycan array binding signal (z-score) [17]: -0.225
glycan array binding signal (z-score) [18]: -1.46
glycan array binding signal (z-score) [19]: -1.2
glycan array binding signal (z-score) [20]: 0.393
glycan array binding signal (z-score) [21]: -0.41
glycan array binding signal (z-score) [22]: -0.953
glycan array binding signal (z-score) [23]: -1.43
glycan array binding signal (z-score) [24]: 2.1
glycan array binding signal (z-score) [25]: 2.02
glycan array binding signal (z-score) [26]: -1.31
glycan array binding signal (z-score) [27]: 0.859
glycan array binding signal (z-score) [28]: 0.481
glycan array binding signal (z-score) [29]: -0.068
glycan array binding signal (z-score) [30]: -0.683
glycan array binding signal (z-score) [31]: 2
glycan array binding signal (z-score) [32]: 0.617
glycan array binding signal (z-score) [33]: 0.771
glycan array binding signal (z-score) [34]: -0.163
glycan array binding signal (z-score) [35]: -0.034
glycan array binding signal (z-score) [36]: -1.07
glycan array binding signal (z-score) [37]: 0.9
glycan array binding signal (z-score) [38]: 0.575
glycan array binding signal (z-score) [39]: 0.092
glycan array binding signal (z-score) [40]: 0.645
glycan array binding signal (z-score) [41]: -0.463
glycan array binding signal (z-score) [42]: -0.575
glycan array binding signal (z-score) [43]: -0.325
glycan array binding signal (z-score) [44]: -0.62
glycan array binding signal (z-score) [45]: -0.284
glycan array binding signal (z-score) [46]: -0.055
glycan array binding signal (z-score) [47]: -1.22
glycan array binding signal (z-score) [48]: -1.39
glycan array binding signal (z-score) [49]: 0.209
glycan array binding signal (z-score) [50]: 1.54
glycan array binding signal (z-score) [51]: -0.424
glycan array binding signal (z-score) [52]: -1.87
glycan array binding signal (z-score) [53]: -0.234
glycan array binding signal (z-score) [54]: -0.872
glycan array binding signal (z-score) [55]: -0.03
glycan array binding signal (z-score) [56]: 1.04
glycan array binding signal (z-score) [57]: -0.308
glycan array binding signal (z-score) [58]: -0.388
glycan array binding signal (z-score) [59]: -0.37
glycan array binding signal (z-score) [60]: -1.42
